Article doi:10.64898/2025.12.20.695697
No constants are given. Whether binding was seen depends on the method and setting. Binding seen in cells or lysates may run through a third protein. A yes stands for co-enrichment or nearness to the bait. Other partners may have been found. Sequences can lack the tags named with a protein.

T1: 3xFLAG::RHEB-1 (C. elegans) (UniProt P34443)
T1 sequence: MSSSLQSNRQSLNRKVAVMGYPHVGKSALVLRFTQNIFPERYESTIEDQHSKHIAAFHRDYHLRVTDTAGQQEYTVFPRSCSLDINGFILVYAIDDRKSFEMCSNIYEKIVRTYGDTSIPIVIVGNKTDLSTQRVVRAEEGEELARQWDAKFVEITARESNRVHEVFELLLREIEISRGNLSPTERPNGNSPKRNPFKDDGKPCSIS

B1: VHA-9 (protein, UniProt Q23680 1-121)
chain: MASAAKGKILAVIGDEDTVVGFLLGGVGELNKARKPNYLIVDKQTTVQEIEEAFNGFCARDDIAIILINQHIAEMIRYAVDNHTQSIPAVLEIPSKEAPYDPSKDSILNRARGLFNPEDFR
B2: NPRL-3 (protein, UniProt Q20069 1-511)
chain: MSAKEVDFERESHLHAVMCFLTGQSGEKIVSIYPHRKPATKAPSKDPQPSSSNPGQCVKPVLTSVKDPSYGFGRVDTEFDMSLGMLAYVFKTQEIACNDGFDMKINNQRFVAYPKTWKARGESTNYQISIVFALKNGCEQHTASAYQTLSNKIAVSLVMLQNYFGFLEREDKWADNAEEPNKDHPLEEFAKTSFIVQPLAEMFEEVRNRGNIHKYLINFVELGFCDEAHALTKLNVVPKGRQEIDEIVRKMKPYHGILLLEDVWPTPDANPIVAKLLSHCSPDRSILDMSTASGIPIFEVFMIIRHLLQWTRAILIYPLCNTNIYTSATSPQPLDKMAEKFTAQFGNTIHLAAGLAHFNPPKTLDTFIRKNLPLHEQGVRAKLVVALLRHQMLMQLHQFYYILKPYSIAILPEPKEPCPAEFTKIIEESTLPNDVKGVVADICAEMLETTSYASVKRTLSLFVKVAPMMDGNHHLEEIKYKNNLDRTEIEGVFVSFKLVIATFRRPDFVAE
B3: NPP-18 (protein, UniProt O45933 1-363)
chain: MQEDDSVKPFQTVGAHRDLIHCVSFDPHGRRMATCASDMTMAIWDRKPDGNWRRSAHWKCHGGAVWRVIWAHPEFGQIVATCSYDRTIVIWEEQIVRSEKDLKQKESQWIRRTIISDNRSDVTDICFSPRHLGLMMASCNVLGTVRIYEAPDIVDASRWNLIHELQAFHTRCGCVTWSLSRMHRPLIAVGSDEKKAENKKRVVIYENIDGLRKWQRINSLVFDLPCPITDLKFSPISMVDSHQLAVASGDVHVYNIKVARSAILEEDGVENPIQLADYNLIKVALLGDHRKAWRLRYNLMGSVISSTSLDGTLRSWKSLFVNQWVKLSEMNVDDYVPSPEEVRAFISSKTTERLPSQLEKTYF

molecular target: T1, 3xFLAG::RHEB-1 (C. elegans); experiment: affinity purification with mass spectrometry

binding	Molecule
binds	NPRL-2 (C. elegans (endogenous))
binds	B1
binds	B2
binds	B3
